Assay results published in patent US6846826B2, “Phenoxypropanol connected with phenylpiperazine and phenoxyalkylamine terminal in its side chain” (priority 2001, dated 2005).

Columns and labels:
Calcium = assay: Isolated Wistar rat thoracic aorta, antagonism of CaCl2-induced contraction; settings: vs CaCl2
Protocol: (§1) After sacrificing Wistar rat of weight between 200˜300 gm, the thoracic aorta was immediately removed and placed in cold Kreb's solution. The fatty connecting tissue surrounding the vessel wall was removed and the thoracic aorta was cut into rings of length 5 mm. The two ends of each ring was pieced and fixed with “Z” shaped platinum wires. Then the thoracic aorta was suspended in 10 ml of tissue bath, aerated with air mixture (95% O2+5% CO2) and maintained at 37° C., where one end was fixed at the bottom of tissue trough, the other end connected to force transducer to record the long contraction via recorder. The sample was given 1 gm of tension and equilibrated for 60 minutes before the following experiments were carried out.
After thoracic aorta had reached equilibrium in the tissue trough, cumulative administration of CaCl2 from […] caused the blood vessel contract to increase tension continuously, and a cumulative dose-response curve was obtained. Then the CaCl2 was thoroughly washed off with Kreb's solution to recover the aorta stability. After the equilibrum was reached again for at east 60 minutes, different concentrations as 10^−8, 10^−7, 10^−6 M of test compounds were added. 30 minutes later, cumulative administration of CaCl2 from 3×10^−5˜10^−2 M were carried out again, and another new cumulative dose-response curve was obtained. Cumulative administration interval was when the previous concentration reached its greatest effect, the next concentration would be immediately given. The time interval was approximately 3˜5 minutes, and the EC50 value could be obtained. From Schild plots, the pA2 of test compounds could be found. Calculation of pA2 value: similar to calculation method on isolated right atrium.

α1 = assay: Isolated Wistar rat thoracic aorta, antagonism of norepinephrine contraction (Schild plot)
Protocol: as §1
After thoracic aorta had reached equilibrium in the tissue trough, cumulative administration of norepinephrine from 10^−10˜3×10^−4 M caused the blood vessel contract to increase tension continuously, and a cumulative dose-response curve was obtained. Then the norepinephrine was thoroughly washed off with Kreb's solution to recover the aorta stability. After the equilibrum was reached again for at least 60 minutes, different concentrations as 10^−7, 10^−6, 10^−5 M of test compounds were added. 30 minutes later, cumulative administration of norepinephrine from […] were carried out again, and another new cumulative dose-response curve was obtained. Administration of norepinephrine started from concentration 1×10^−10 M, and the concentration was raised 0.5 log each time. Cumulative administration interval was when the previous concentration reached its greatest effect, the next concentration would be immediately given. The time interval was approximately 3˜5 minutes, and the EC50 value could be obtained. From Schild plots, the pA2 of test compounds could be found. Calculation of pA2 value: similar to calculation method on isolated right atrium.

Structure (SMILES): COC(=O)C1=C(C)NC(C)=C(C(=O)OC)C1c1ccc(OCC(O)CNCCOc2ccccc2OC)cc1 (centres unmarked) [Labedipinedilol-B]
- Calcium Slope of Schild plot, Aorta (Calcium): (0.78 ± 0.07)
- α1 Slope of Schild plot, Aorta (α1): (1.01 ± 0.06)

Structure (SMILES): COC(=O)C1=C(C)NC(C)=C(C(=O)OC)C1c1ccc(OCC(O)CN2CCN(c3ccccc3Cl)CC2)c(OC)c1 (centres unmarked) [Labedipinedilol-C]
- Calcium Slope of Schild plot, Aorta (Calcium): (0.64 ± 0.07)
- α1 Slope of Schild plot, Aorta (α1): (0.88 ± 0.04)

Structure (SMILES): COC(=O)C1=C(C)NC(C)=C(C(=O)OC)C1c1ccc(OCC(O)CNCCOc2ccccc2C)c(OC)c1 (centres unmarked) [Labedipinedilol-D]
- Calcium Slope of Schild plot, Aorta (Calcium): (0.39 ± 0.05)
- α1 Slope of Schild plot, Aorta (α1): (0.90 ± 0.07)

Structure (SMILES): COC(=O)C1=C(C)NC(C)=C(C(=O)OC)C1c1ccc(OCC(O)CNCCOc2ccccc2Cl)c(OC)c1 (centres unmarked) [Labedipinedilol-E]
- Calcium Slope of Schild plot, Aorta (Calcium): (0.47 ± 0.06)
- α1 Slope of Schild plot, Aorta (α1): (0.78 ± 0.07)
